The assay addresses AGO2 fused with C-terminal Flag- and HA-epitope tags (e-AGO2) (UniProt Q9UKV8). As to the kind of experiment: affinity purification with mass spectrometry.

Chains of the proteins cited; added tags and fusions are not shown.
UniProt Q9UKV8, whole entry: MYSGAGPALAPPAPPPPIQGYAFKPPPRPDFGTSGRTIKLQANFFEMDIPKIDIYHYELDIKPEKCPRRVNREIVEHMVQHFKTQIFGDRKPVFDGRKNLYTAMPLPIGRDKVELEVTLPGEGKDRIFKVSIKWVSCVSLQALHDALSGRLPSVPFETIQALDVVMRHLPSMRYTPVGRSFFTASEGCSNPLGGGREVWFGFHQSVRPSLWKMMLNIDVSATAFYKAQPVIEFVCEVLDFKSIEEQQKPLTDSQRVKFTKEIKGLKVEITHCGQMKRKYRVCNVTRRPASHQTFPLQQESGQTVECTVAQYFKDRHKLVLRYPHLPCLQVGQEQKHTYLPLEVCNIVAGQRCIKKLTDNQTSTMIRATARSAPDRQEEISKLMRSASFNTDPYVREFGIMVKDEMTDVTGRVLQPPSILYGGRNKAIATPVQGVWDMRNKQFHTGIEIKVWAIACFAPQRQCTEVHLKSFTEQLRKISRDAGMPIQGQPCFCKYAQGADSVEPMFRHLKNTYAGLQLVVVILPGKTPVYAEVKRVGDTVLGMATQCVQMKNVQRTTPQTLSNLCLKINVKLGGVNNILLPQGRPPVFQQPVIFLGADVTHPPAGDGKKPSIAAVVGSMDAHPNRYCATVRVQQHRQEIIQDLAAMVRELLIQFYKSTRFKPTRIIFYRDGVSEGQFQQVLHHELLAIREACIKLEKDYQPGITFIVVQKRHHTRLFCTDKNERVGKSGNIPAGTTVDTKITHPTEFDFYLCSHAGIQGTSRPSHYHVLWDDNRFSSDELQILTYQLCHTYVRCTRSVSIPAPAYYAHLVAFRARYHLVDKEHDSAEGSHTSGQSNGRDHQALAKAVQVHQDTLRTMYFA

Results are given in words; binding and its absence hold for the method and conditions named. In cells and extracts the contact can be indirect. These calls come from enrichment with a bait or labelling near it, and not all partners need be listed. A no says only that the protein was not detected with the bait.

Results on 1 substance are retold here after paper doi:10.1101/2025.01.26.634929.

As for HNRNPK (from UniProt P61978 1-463), the binding entry is “no binding”.
